# Some of the results follow.
# B1: Adiponectin (Rattus norvegicus), Q8K3R4 (protein)
# chain: MLLLQALLFLLILPSHEGITATEGPGALVPPPKETCAGWMAGIPGYPGHNGIPGRDGRDGTPGEKGEKGDAGVLGPKGDPGDAGMTGAEGPRGFPGTPGRKGEPGEAAYMYHSAFSVGLETRVTVPNVPIRFTKIFYNQQNHYDGSTGKFHCNIPGLYYFSYHITVYMKDVKVSLFKKDKAVLFTYDQYQEKNVDQASGSMLLHLEVGDQVWLQVYGEGDNNGLYADNVNDSTFTGFLLYHDTN
# Legend:
# Assay in all cases: glycan array binding signal (z-score within array); higher = stronger binding
# Conditions in all cases: glycan notation: IUPAC condensed, linker removed
# Fuc(a1-2)Gal = biological target: Fuc(a1-2)Gal
# Procedure, shortened: (§1)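 From the Consortium for Functional Glycomics database, 3228 arrays were curated, keeping only those whose protein sequence was available. Binding is given as a within-array Z-score averaged across arrays sharing a protein sequence and across linkers. Negative Z-scores can be read as non-binding.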
# Fuc(a1-2)Gal(b1-3)GalNAc = biological target: Fuc(a1-2)Gal(b1-3)GalNAc
# Procedure, shortened: as §1
# [1] = biological target: Fuc(a1-2)Gal(b1-3)GalNAc(b1-3)Gal
# Procedure, shortened: as §1
# [2] = biological target: Fuc(a1-2)Gal(b1-3)GalNAc(b1-3)Gal(a1-4)Gal(b1-4)Glc
# Procedure, shortened: as §1
# [3] = biological target: Fuc(a1-2)Gal(b1-3)GalNAc(b1-4)[Neu5Ac(a2-3)]Gal(b1-4)Glc
# Procedure, shortened: as §1
# Fuc(a1-2)Gal(b1-3)GlcNAc = biological target: Fuc(a1-2)Gal(b1-3)GlcNAc
# Procedure, shortened: as §1
# [4] = biological target: Fuc(a1-2)Gal(b1-3)GlcNAc(b1-2)Man(a1-3)[Fuc(a1-2)Gal(b1-3)GlcNAc(b1-2)Man(a1-6)]Man(b1-4)GlcNAc(b1-4)GlcNAc
# Procedure, shortened: as §1
# [5] = biological target: Fuc(a1-2)Gal(b1-3)GlcNAc(b1-3)Gal(b1-4)Glc
# Procedure, shortened: as §1
# [6] = biological target: Fuc(a1-2)Gal(b1-3)GlcNAc(b1-3)[Gal(b1-4)[Fuc(a1-3)]GlcNAc(b1-6)]Gal(b1-4)Glc
# Procedure, shortened: as §1
# [7] = biological target: Fuc(a1-2)Gal(b1-3)[Fuc(a1-4)]GlcNAc
# Procedure, shortened: as §1
# [8] = biological target: Fuc(a1-2)Gal(b1-3)[Fuc(a1-4)]GlcNAc(b1-2)Man(a1-3)[Fuc(a1-2)Gal(b1-3)[Fuc(a1-4)]GlcNAc(b1-2)Man(a1-6)]Man(b1-4)GlcNAc(b1-4)GlcNAc
# Procedure, shortened: as §1
# Fuc(a1-2)Gal(b1-4)Glc = biological target: Fuc(a1-2)Gal(b1-4)Glc
# Procedure, shortened: as §1
# Fuc(a1-2)Gal(b1-4)Glc6S = biological target: Fuc(a1-2)Gal(b1-4)Glc6S
# Procedure, shortened: as §1
# Fuc(a1-2)Gal(b1-4)GlcNAc = biological target: Fuc(a1-2)Gal(b1-4)GlcNAc
# Procedure, shortened: as §1
# [9] = biological target: Fuc(a1-2)Gal(b1-4)GlcNAc(b1-2)Man(a1-3)[Fuc(a1-2)Gal(b1-4)GlcNAc(b1-2)Man(a1-6)]Man(b1-4)GlcNAc(b1-4)GlcNAc
# Procedure, shortened: as §1
# [10] = biological target: Fuc(a1-2)Gal(b1-4)GlcNAc(b1-3)Gal(b1-4)GlcNAc
# Procedure, shortened: as §1
# [11] = biological target: Fuc(a1-2)Gal(b1-4)GlcNAc(b1-3)Gal(b1-4)GlcNAc(b1-3)Gal(b1-4)GlcNAc
# Procedure, shortened: as §1
# [12] = biological target: Fuc(a1-2)Gal(b1-4)GlcNAc6S
# Procedure, shortened: as §1
# [13] = biological target: Fuc(a1-2)Gal(b1-4)[Fuc(a1-3)]GlcNAc
# Procedure, shortened: as §1
# [14] = biological target: Fuc(a1-2)Gal(b1-4)[Fuc(a1-3)]GlcNAc(b1-2)Man(a1-3)[Fuc(a1-2)Gal(b1-4)[Fuc(a1-3)]GlcNAc(b1-2)Man(a1-6)]Man(b1-4)GlcNAc(b1-4)GlcNAc
# Procedure, shortened: as §1
# [15] = biological target: Fuc(a1-2)Gal(b1-4)[Fuc(a1-3)]GlcNAc(b1-3)Gal(b1-4)[Fuc(a1-3)]GlcNAc
# Procedure, shortened: as §1
# [16] = biological target: Fuc(a1-2)Gal(b1-4)[Fuc(a1-3)]GlcNAc(b1-3)Gal(b1-4)[Fuc(a1-3)]GlcNAc(b1-3)Gal(b1-4)[Fuc(a1-3)]GlcNAc
# Procedure, shortened: as §1
# Fuc(a1-2)Gal6S(b1-4)Glc = biological target: Fuc(a1-2)Gal6S(b1-4)Glc
# Procedure, shortened: as §1
# [17] = biological target: Fuc(a1-2)Gal6S(b1-4)Glc6S
# Procedure, shortened: as §1
# [18] = biological target: Fuc(a1-2)Gal6S(b1-4)GlcNAc
# Procedure, shortened: as §1
# Fuc(a1-2)[Gal(a1-3)]Gal = biological target: Fuc(a1-2)[Gal(a1-3)]Gal
# Procedure, shortened: as §1
# [19] = biological target: Fuc(a1-2)[Gal(a1-3)]Gal(b1-3)GlcNAc
# Procedure, shortened: as §1
# [20] = biological target: Fuc(a1-2)[Gal(a1-3)]Gal(b1-3)GlcNAc(b1-2)Man(a1-3)[Fuc(a1-2)[Gal(a1-3)]Gal(b1-3)GlcNAc(b1-2)Man(a1-6)]Man(b1-4)GlcNAc(b1-4)GlcNAc
# Procedure, shortened: as §1
# [21] = biological target: Fuc(a1-2)[Gal(a1-3)]Gal(b1-4)Glc
# Procedure, shortened: as §1
# [22] = biological target: Fuc(a1-2)[Gal(a1-3)]Gal(b1-4)GlcNAc
# Procedure, shortened: as §1
# [23] = biological target: Fuc(a1-2)[Gal(a1-3)]Gal(b1-4)GlcNAc(b1-2)Man(a1-3)[Fuc(a1-2)[Gal(a1-3)]Gal(b1-4)GlcNAc(b1-2)Man(a1-6)]Man(b1-4)GlcNAc(b1-4)GlcNAc
# Procedure, shortened: as §1
# [24] = biological target: Fuc(a1-2)[Gal(a1-3)]Gal(b1-4)[Fuc(a1-3)]GlcNAc
# Procedure, shortened: as §1
# [25] = biological target: Fuc(a1-2)[Gal(a1-4)]Gal(b1-4)GlcNAc
# Procedure, shortened: as §1
# [26] = biological target: Fuc(a1-2)[GalNAc(a1-3)]Gal
# Procedure, shortened: as §1
# [27] = biological target: Fuc(a1-2)[GalNAc(a1-3)]Gal(b1-3)GlcNAc
# Procedure, shortened: as §1
# [28] = biological target: Fuc(a1-2)[GalNAc(a1-3)]Gal(b1-3)GlcNAc(b1-2)Man(a1-3)[Fuc(a1-2)[GalNAc(a1-3)]Gal(b1-3)GlcNAc(b1-2)Man(a1-6)]Man(b1-4)GlcNAc(b1-4)GlcNAc
# Procedure, shortened: as §1
# [29] = biological target: Fuc(a1-2)[GalNAc(a1-3)]Gal(b1-4)Glc
# Procedure, shortened: as §1
# [30] = biological target: Fuc(a1-2)[GalNAc(a1-3)]Gal(b1-4)GlcNAc
# Procedure, shortened: as §1
# [31] = biological target: Fuc(a1-2)[GalNAc(a1-3)]Gal(b1-4)GlcNAc(b1-2)Man(a1-3)[GalNAc(a1-3)[Fuc(a1-2)]Gal(b1-4)GlcNAc(b1-2)Man(a1-6)]Man(b1-4)GlcNAc(b1-4)GlcNAc
# Procedure, shortened: as §1
# [32] = biological target: Fuc(a1-2)[GalNAc(a1-3)]Gal(b1-4)GlcNAc(b1-3)Gal(b1-4)GlcNAc
# Procedure, shortened: as §1
# [33] = biological target: Fuc(a1-2)[GalNAc(a1-3)]Gal(b1-4)GlcNAc(b1-3)Gal(b1-4)GlcNAc(b1-3)Gal(b1-4)GlcNAc
# Procedure, shortened: as §1
# [34] = biological target: Fuc(a1-2)[GalNAc(a1-3)]Gal(b1-4)[Fuc(a1-3)]GlcNAc
# Procedure, shortened: as §1
# [35] = biological target: Fuc(a1-2)[GalNAc(a1-4)]Gal(b1-4)GlcNAc
# Procedure, shortened: as §1
# [36] = biological target: Fuc(a1-2)[GalNAc(b1-3)]Gal
# Procedure, shortened: as §1
# Fuc(a1-3)GlcNAc = biological target: Fuc(a1-3)GlcNAc
# Procedure, shortened: as §1
# [37] = biological target: Fuc(a1-3)[Gal(b1-4)]Glc6S
# Procedure, shortened: as §1
# [38] = biological target: Fuc(a1-3)[Gal(b1-4)]GlcNAc
# Procedure, shortened: as §1
# [39] = biological target: Fuc(a1-3)[Gal(b1-4)]GlcNAc(b1-2)Man(a1-3)[Fuc(a1-3)[Gal(b1-4)]GlcNAc(b1-2)Man(a1-6)]Man(b1-4)GlcNAc(b1-4)GlcNAc
# Procedure, shortened: as §1
# [40] = biological target: Fuc(a1-3)[Gal(b1-4)]GlcNAc(b1-2)Man(a1-6)[Gal(b1-4)GlcNAc(b1-2)Man(a1-3)]Man(b1-4)GlcNAc(b1-4)GlcNAc
# Procedure, shortened: as §1
# [41] = biological target: Fuc(a1-3)[Gal(b1-4)]GlcNAc(b1-3)Gal(b1-3)[Fuc(a1-4)]GlcNAc
# Procedure, shortened: as §1
# [42] = biological target: Fuc(a1-3)[Gal(b1-4)]GlcNAc(b1-4)Gal(b1-4)[Fuc(a1-3)]GlcNAc
# Procedure, shortened: as §1
# [43] = biological target: Fuc(a1-3)[Gal(b1-4)]GlcNAc(b1-4)Gal(b1-4)[Fuc(a1-3)]GlcNAc(b1-4)Gal(b1-4)[Fuc(a1-3)]GlcNAc
# Procedure, shortened: as §1
# [44] = biological target: Fuc(a1-3)[Gal(b1-4)]GlcNAc6S
# Procedure, shortened: as §1
# [45] = biological target: Fuc(a1-3)[Gal3S(b1-4)]Glc6S
# Procedure, shortened: as §1
# [46] = biological target: Fuc(a1-3)[Gal3S(b1-4)]GlcNAc
# Procedure, shortened: as §1
# [47] = biological target: Fuc(a1-3)[Gal3S(b1-4)]GlcNAc6S
# Procedure, shortened: as §1
# [48] = biological target: Fuc(a1-3)[GalNAc(b1-4)]GlcNAc
# Procedure, shortened: as §1
# Fuc(a1-4)GlcNAc = biological target: Fuc(a1-4)GlcNAc
# Procedure, shortened: as §1
# Fuc(b1-3)GlcNAc = biological target: Fuc(b1-3)GlcNAc
# Procedure, shortened: as §1
# Gal(a1-2)Gal = biological target: Gal(a1-2)Gal
# Procedure, shortened: as §1
binder,measurement,setting,value
B1,glycan array binding signal (z-score),Fuc(a1-2)Gal,0.398
same,glycan array binding signal (z-score),Fuc(a1-2)Gal(b1-3)GalNAc,-0.147
same,glycan array binding signal (z-score),[1],-0.397
same,glycan array binding signal (z-score),[2],-0.73
same,glycan array binding signal (z-score),[3],0.079
same,glycan array binding signal (z-score),Fuc(a1-2)Gal(b1-3)GlcNAc,-0.496
same,glycan array binding signal (z-score),[4],4.69
same,glycan array binding signal (z-score),[5],0.452
same,glycan array binding signal (z-score),[6],-0.377
same,glycan array binding signal (z-score),[7],-0.923
same,glycan array binding signal (z-score),[8],2.87
same,glycan array binding signal (z-score),Fuc(a1-2)Gal(b1-4)Glc,-0.025
same,glycan array binding signal (z-score),Fuc(a1-2)Gal(b1-4)Glc6S,-0.631
same,glycan array binding signal (z-score),Fuc(a1-2)Gal(b1-4)GlcNAc,-0.228
same,glycan array binding signal (z-score),[9],0.313
same,glycan array binding signal (z-score),[10],0.416
same,glycan array binding signal (z-score),[11],0.826
same,glycan array binding signal (z-score),[12],-0.856
same,glycan array binding signal (z-score),[13],-0.719
same,glycan array binding signal (z-score),[14],-0.353
same,glycan array binding signal (z-score),[15],-0.291
same,glycan array binding signal (z-score),[16],-0.166
same,glycan array binding signal (z-score),Fuc(a1-2)Gal6S(b1-4)Glc,0.016
same,glycan array binding signal (z-score),[17],-0.367
same,glycan array binding signal (z-score),[18],-0.878
same,glycan array binding signal (z-score),Fuc(a1-2)[Gal(a1-3)]Gal,0.045
same,glycan array binding signal (z-score),[19],-0.577
same,glycan array binding signal (z-score),[20],0.424
same,glycan array binding signal (z-score),[21],0.274
same,glycan array binding signal (z-score),[22],-0.879
same,glycan array binding signal (z-score),[23],-0.975
same,glycan array binding signal (z-score),[24],2.15
same,glycan array binding signal (z-score),[25],-0.75
same,glycan array binding signal (z-score),[26],0.237
same,glycan array binding signal (z-score),[27],-0.662
same,glycan array binding signal (z-score),[28],0.772
same,glycan array binding signal (z-score),[29],-0.55
same,glycan array binding signal (z-score),[30],-0.634
same,glycan array binding signal (z-score),[31],2.81
same,glycan array binding signal (z-score),[32],0.183
same,glycan array binding signal (z-score),[33],2.87
same,glycan array binding signal (z-score),[34],-0.729
same,glycan array binding signal (z-score),[35],-0.373
same,glycan array binding signal (z-score),[36],0.034
same,glycan array binding signal (z-score),Fuc(a1-3)GlcNAc,-0.196
same,glycan array binding signal (z-score),[37],1.98
same,glycan array binding signal (z-score),[38],-0.018
same,glycan array binding signal (z-score),[39],-1.22
same,glycan array binding signal (z-score),[40],-1
same,glycan array binding signal (z-score),[41],-0.745
same,glycan array binding signal (z-score),[42],-0.803
same,glycan array binding signal (z-score),[43],-0.968
same,glycan array binding signal (z-score),[44],1.21
same,glycan array binding signal (z-score),[45],-1.09
same,glycan array binding signal (z-score),[46],-0.025
same,glycan array binding signal (z-score),[47],-0.745
same,glycan array binding signal (z-score),[48],-0.811
same,glycan array binding signal (z-score),Fuc(a1-4)GlcNAc,-0.659
same,glycan array binding signal (z-score),Fuc(b1-3)GlcNAc,0.752
same,glycan array binding signal (z-score),Gal(a1-2)Gal,0.075

# Reprinted from the results shown for reference:
binder,measurement,setting,value
B1,glycan array binding signal (z-score),[1],-0.397
same,glycan array binding signal (z-score),[2],-0.73
same,glycan array binding signal (z-score),[3],0.079
